Measurements from publication PMC8754431.
These are yes or no findings as the source states them, for the method shown. In cells and extracts the contact can be indirect. Some binding calls cover weakened binding; strength is not graded here.

Protein sequences, listed by entry. Tags and fused reporters are not part of them.
UniProt E9PY46: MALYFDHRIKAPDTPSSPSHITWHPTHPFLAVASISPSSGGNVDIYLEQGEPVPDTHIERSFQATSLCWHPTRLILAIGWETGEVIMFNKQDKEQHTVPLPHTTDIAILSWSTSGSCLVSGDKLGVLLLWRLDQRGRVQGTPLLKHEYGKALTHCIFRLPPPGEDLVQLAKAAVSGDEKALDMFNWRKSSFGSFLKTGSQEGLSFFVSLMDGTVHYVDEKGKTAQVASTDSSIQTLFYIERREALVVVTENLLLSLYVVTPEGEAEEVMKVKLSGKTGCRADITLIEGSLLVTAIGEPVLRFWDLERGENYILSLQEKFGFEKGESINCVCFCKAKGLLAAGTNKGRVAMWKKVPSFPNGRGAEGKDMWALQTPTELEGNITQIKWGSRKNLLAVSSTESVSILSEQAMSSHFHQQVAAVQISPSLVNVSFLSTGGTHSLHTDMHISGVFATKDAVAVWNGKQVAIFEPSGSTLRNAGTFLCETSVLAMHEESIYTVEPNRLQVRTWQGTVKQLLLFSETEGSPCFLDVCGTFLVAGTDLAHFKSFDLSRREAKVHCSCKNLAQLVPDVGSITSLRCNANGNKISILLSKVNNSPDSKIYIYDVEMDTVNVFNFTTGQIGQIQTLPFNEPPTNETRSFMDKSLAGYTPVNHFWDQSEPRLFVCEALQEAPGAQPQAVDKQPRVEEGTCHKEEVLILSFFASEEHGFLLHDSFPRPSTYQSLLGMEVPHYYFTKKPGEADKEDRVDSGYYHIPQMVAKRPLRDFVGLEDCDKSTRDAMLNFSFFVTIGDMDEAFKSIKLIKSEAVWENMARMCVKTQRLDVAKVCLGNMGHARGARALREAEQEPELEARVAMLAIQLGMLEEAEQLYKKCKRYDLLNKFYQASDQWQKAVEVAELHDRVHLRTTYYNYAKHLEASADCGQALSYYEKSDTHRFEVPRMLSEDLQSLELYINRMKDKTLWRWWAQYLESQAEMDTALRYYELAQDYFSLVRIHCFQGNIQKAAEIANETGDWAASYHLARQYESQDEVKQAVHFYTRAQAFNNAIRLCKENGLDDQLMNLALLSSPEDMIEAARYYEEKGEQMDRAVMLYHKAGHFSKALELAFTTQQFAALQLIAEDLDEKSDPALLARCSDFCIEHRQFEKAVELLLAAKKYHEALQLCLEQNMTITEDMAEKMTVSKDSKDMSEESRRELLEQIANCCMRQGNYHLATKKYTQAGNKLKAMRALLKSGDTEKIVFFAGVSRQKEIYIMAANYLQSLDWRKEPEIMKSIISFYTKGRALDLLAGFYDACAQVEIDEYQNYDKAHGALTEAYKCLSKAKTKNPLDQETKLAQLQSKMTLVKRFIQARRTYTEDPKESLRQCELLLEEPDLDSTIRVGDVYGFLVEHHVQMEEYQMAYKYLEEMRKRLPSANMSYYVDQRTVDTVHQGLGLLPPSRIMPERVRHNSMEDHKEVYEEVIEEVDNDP

Biological target: IFT140 (mouse (endogenous in E11.5 embryos)) (UniProt E9PY46)
Experiment: co-IP; endogenous IFT140 immunoprecipitated from E11.5 Wdr35+/+ and Wdr35-/- mouse embryo lysates, immunoblots of IFT-A subunits

B1: IFT43 (protein, UniProt Q9DA69 1-206)
chain: MDDLLDLGEERRRSSATSGAKMGRRAHQESTQAENYLNSKNSSLTQTGEAPPPKPPRRQGGWADDSMKMAKLGKKVSEEMEDHRLRQQNLMGSDDDDIPVIPDLEDVQEEDFVLQVASPPSIQVNRVMTYRDLDNDLMKYSAFQTLDGEIDLKLLTKVLAPEHEVREDDVGWDWDHLYTEVSSELLTEWDLLRAEKEDPVGPSRYI
binding: binds
